Assay results taken from paper PMC12022026.
Results are given in words; binding and its absence hold for the method and conditions named. In cells and extracts the contact can be indirect. These calls come from enrichment with a bait or labelling near it, and not all partners need be listed.

Target: T1, stimulator of interferon genes (STING), endogenous in mouse primary cardiomyocytes (mouse (endogenous in mouse primary cardiomyocytes)) (UniProt Q3TBT3)
T1 sequence: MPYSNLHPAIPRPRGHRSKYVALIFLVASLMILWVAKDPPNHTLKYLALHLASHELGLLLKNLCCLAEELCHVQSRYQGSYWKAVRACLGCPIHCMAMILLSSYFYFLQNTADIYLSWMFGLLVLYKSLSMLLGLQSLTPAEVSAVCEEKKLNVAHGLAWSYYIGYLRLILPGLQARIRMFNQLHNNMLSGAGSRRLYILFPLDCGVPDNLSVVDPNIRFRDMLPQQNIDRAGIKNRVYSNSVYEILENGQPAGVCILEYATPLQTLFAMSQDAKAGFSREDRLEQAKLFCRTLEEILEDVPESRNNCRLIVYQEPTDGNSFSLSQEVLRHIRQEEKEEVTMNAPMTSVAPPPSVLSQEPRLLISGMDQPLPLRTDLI
Assay: affinity purification with mass spectrometry; tandem affinity purification with STING protein affinity antibodies from MPCs post-A/R; silver staining and LC-MS/MS

## glutathione peroxidase 4 (GPX4), endogenous in mouse primary cardiomyocytes
  binding: binds
